# Data published in paper doi:10.1101/231043.
# Results are given in words; binding and its absence hold for the method and conditions named. Binding seen in cells or lysates may run through a third protein. Binding calls can cover weak binding; strength is not graded here. Tags and fused reporters may be left off the sequences shown.
# Biological target: T1, GFP-tagged FERONIA (FER-GFP) (A. thaliana) (UniProt Q9SCZ4)
# T1 sequence: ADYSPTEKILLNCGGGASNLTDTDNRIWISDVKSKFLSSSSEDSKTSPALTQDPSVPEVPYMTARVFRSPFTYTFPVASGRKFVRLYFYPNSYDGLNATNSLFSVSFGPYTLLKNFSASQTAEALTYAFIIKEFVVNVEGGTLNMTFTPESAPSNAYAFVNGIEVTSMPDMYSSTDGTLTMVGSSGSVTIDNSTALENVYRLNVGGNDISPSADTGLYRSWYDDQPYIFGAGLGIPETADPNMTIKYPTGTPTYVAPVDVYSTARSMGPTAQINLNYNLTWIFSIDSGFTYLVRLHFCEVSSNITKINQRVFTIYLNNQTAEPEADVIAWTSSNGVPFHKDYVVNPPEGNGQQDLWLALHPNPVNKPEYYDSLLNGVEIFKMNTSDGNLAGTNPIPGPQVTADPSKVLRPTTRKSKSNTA
# Test: co-IP
substance,measurement,value
HA-tagged N-terminal part of LRX4 (LRR4-HA) (A. thaliana) (domain or fragment),binding,binds
